Counter-ions that a name gives are not always drawn. The list shows a part of the results. Repeats in this data set agree poorly, so a single value says little.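 Wells held roughly 40 S. mansoni schistosomula, imaged in bright field over time against wells given 0.1% DMSO. The paper defines hits as drugs with a Mahalanobis distance of at least 2.47, three standard deviations above the DMSO control mean. Degeneracy is the proportion of worms classified as opaque.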 Square brackets hold non-standard residues; d marks the D form. Peptide text beside a SMILES is read from it. pGlu = O=C1CC[C@@H](C(=O)O)N1; Thz = O=C(O)[C@@H]1CSCN1
system: Schistosoma mansoni schistosomula; experiment: Mahalanobis distance of static-rate-frequency phenotype descriptors from DMSO controls (dimensionless); higher = stronger phenotypic change versus DMSO; conditions: 10 µM; 72 h

| Compound | Mahalanobis distance |
| --- | --- |
| Clc1ccc2nsnc2c1NC1=NCCN1 [Tizanidine Hydrochloride] | inactive: 1.91 |
| CO/N=C(\C(=O)N[C@@H]1C(=O)N2C(C(=O)O)=C(COC(C)=O)CS[C@H]12)c1csc(N)n1 [Cefotaxime Sodium] | inactive: 1.74 |
| CO/N=C(\C(=O)N[C@@H]1C(=O)N2C(C(=O)O)=C(COC(C)=O)CS[C@H]12)c1csc(N)n1 [Cefotaxime] | active: 4.78 |
| COc1cc(CNC(=O)CCCC/C=C/C(C)C)ccc1O [Capsaicin] | inactive: 1.68 |
| O=C(NCCCN1CCOCC1)c1ccc(Cl)cc1 [Eprobemide] | active: 3.63 |
| C[C@]12CC[C@@H]3c4ccc(O)cc4C[C@@H](CCCCCCCCC[S+]([O-])CCCC(F)(F)C(F)(F)F)[C@H]3[C@@H]1CC[C@@H]2O (stereo not given in full) [Fulvestrant] | active: 3.26 |
| COC(=O)[C@H](Cc1ccccc1)NC(=O)[C@@H](N)CC(=O)O [Aspartame] (H-Asp-Phe-OMe) | inactive: 1.53 |
| O=C1CC[C@@H](C(=O)N2CSC[C@H]2C(=O)O)N1 [Pidotimod] ([pGlu]-[Thz]-OH) | active: 2.64 |
| Oc1c(Cl)cc(Cl)c2cccnc12 [chloroxine] | active: 2.5 |
| c1ccc(-c2ccc(C(c3ccccc3)n3ccnc3)cc2)cc1 (stereo not given) [Bifonazole] | active: 2.76 |
| CCOc1nc2cccc(C(=O)O)c2n1Cc1ccc(-c2ccccc2-c2nnn[nH]2)cc1 [Candesartan] | inactive: 1.94 |
| CC[C@H](C)[C@H](N)C(=O)O [Isoleucine (l)] | inactive: 1.97 |
| C[C@H]1C[C@H]2[C@@H]3CCC4=CC(=O)C=C[C@]4(C)[C@@]3(F)[C@@H](O)C[C@]2(C)[C@@]1(O)C(=O)COP(=O)(O)O [Betamethasone Sodium Phosphate] | inactive: 1.57 |
| Nc1ncnc2c1ncn2[C@@H]1O[C@H](CO)[C@@H](O)[C@@H]1O [Vidarabine] | active: 3.1 |
| COC(=O)Nc1nc2cc(Sc3ccccc3)ccc2[nH]1 [Fenbendazole] | active: 2.86 |
| CC(=O)N(CC(O)CO)c1c(I)c(C(=O)NCC(O)CO)c(I)c(C(=O)NCC(O)CO)c1I (stereo not given) [Iohexol] | inactive: 2.19 |
| CC(=O)N(CC(O)CO)c1c(I)c(C(=O)NCCO)c(I)c(C(=O)NCC(O)CO)c1I (stereo not given) [Ioxilan] | inactive: 2.37 |
| CCCCCCCCCCCCCCCC(=O)OC[C@H](O)[C@H]1OC(=O)C(O)=C1O [Ascorbyl Palmitate] | inactive: 2.14 |
| CNCCc1ccccn1 [Betahistine] | active: 2.9 |
| CC=CC(=O)N(CC)c1ccccc1C [Crotamiton] | inactive: 1.42 |

Copied from the list:
For Mahalanobis distance, Oc1c(Cl)cc(Cl)c2cccnc12 [chloroxine] reads active: 2.5
For Mahalanobis distance, CC[C@H](C)[C@H](N)C(=O)O [Isoleucine (l)] reads inactive: 1.97

Reference: the supplement of paper PMC7752906
